Results from the supplement of paper PMC10849652.
The list shows a part of the results.

Protein sequences, listed by entry. Tags and fused reporters are not part of them. Lines headed by an entry give the natural chain unless they say otherwise; changes in a name come on top.
UniProt Q15125: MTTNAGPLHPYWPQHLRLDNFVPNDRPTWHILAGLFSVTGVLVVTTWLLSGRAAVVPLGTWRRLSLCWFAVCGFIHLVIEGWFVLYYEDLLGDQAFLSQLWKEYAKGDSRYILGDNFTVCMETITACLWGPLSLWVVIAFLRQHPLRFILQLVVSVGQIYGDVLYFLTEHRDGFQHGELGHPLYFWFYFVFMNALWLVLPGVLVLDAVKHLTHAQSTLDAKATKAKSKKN
UniProt P63167, whole entry, looked up: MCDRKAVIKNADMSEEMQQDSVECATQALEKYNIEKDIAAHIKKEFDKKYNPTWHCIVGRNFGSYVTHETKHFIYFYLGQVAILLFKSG
UniProt Q7L8W6: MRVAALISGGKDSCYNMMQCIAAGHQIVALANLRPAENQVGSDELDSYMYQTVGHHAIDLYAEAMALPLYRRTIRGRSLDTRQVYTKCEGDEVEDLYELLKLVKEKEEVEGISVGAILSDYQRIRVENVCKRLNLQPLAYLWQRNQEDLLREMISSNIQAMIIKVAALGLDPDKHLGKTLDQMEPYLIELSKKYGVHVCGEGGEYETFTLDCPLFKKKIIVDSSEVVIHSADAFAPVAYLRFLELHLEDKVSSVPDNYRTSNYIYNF
UniProt Q8WXX5: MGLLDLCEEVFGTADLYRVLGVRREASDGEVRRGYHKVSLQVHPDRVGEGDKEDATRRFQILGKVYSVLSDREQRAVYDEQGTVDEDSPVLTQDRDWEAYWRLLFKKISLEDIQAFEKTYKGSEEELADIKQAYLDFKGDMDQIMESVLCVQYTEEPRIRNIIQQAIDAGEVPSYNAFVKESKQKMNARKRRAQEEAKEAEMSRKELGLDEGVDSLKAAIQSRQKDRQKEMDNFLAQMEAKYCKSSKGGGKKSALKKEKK
UniProt Q99543: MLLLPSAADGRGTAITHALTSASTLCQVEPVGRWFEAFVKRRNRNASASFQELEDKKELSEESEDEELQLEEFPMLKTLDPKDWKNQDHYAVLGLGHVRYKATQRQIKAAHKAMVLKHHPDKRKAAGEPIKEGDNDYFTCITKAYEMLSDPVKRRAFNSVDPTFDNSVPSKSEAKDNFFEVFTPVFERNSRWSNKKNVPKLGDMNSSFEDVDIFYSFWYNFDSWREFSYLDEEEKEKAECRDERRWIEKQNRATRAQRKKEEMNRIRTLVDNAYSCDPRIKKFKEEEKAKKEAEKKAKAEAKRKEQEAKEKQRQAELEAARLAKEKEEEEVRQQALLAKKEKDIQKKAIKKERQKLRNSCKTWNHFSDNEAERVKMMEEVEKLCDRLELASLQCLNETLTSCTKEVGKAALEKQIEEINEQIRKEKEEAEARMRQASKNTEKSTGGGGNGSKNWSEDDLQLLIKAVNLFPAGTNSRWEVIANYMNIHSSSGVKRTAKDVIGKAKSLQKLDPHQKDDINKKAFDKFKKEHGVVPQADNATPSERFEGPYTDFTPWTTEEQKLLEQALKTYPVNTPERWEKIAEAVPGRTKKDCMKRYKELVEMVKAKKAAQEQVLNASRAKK
UniProt O00429, whole entry, looked up: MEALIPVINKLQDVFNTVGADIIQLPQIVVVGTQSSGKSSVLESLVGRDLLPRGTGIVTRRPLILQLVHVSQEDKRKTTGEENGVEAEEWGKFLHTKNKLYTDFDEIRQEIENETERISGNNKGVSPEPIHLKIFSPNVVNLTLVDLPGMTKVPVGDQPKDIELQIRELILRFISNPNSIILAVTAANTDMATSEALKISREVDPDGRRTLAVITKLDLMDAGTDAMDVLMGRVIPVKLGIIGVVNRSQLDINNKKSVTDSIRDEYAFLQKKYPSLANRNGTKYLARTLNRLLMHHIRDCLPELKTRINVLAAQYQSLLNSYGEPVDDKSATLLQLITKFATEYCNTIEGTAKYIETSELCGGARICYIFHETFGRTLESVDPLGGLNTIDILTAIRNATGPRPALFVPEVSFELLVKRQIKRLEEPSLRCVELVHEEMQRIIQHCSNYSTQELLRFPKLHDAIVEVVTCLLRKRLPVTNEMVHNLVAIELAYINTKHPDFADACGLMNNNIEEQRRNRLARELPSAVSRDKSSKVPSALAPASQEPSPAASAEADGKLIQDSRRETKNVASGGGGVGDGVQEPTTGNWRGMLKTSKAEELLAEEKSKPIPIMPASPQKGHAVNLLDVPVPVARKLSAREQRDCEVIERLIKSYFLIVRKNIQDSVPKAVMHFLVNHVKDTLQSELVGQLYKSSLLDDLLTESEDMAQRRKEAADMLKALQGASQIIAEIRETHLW
UniProt Q92785, whole entry, looked up: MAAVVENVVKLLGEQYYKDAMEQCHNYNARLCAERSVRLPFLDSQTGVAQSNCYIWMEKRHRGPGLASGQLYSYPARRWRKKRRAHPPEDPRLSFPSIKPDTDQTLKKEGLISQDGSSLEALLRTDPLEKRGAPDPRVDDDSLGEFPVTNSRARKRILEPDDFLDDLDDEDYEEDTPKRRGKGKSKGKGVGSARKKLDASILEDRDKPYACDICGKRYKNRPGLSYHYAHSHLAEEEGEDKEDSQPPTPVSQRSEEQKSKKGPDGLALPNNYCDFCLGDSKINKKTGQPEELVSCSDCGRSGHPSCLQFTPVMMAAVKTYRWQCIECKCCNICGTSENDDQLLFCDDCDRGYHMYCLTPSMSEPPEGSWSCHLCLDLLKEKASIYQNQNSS
UniProt Q9UDY4: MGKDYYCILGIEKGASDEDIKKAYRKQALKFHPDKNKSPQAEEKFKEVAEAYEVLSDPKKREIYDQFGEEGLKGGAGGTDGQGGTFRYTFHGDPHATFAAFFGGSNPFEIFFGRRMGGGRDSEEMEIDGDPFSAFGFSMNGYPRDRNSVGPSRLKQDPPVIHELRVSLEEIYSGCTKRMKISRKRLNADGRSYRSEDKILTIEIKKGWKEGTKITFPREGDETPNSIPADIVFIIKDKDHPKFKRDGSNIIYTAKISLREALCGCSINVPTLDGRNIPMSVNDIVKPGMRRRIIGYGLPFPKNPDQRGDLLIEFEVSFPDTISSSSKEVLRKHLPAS
UniProt Q9NTX5: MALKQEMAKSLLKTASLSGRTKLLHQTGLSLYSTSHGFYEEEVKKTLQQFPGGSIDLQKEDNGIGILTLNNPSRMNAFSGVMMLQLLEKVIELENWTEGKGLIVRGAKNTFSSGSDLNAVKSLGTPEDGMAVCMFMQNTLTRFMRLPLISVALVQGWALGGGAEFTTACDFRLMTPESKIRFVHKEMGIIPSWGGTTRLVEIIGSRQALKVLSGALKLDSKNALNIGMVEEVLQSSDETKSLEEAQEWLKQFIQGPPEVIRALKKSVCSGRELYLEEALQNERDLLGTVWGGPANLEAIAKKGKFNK
UniProt Q01658: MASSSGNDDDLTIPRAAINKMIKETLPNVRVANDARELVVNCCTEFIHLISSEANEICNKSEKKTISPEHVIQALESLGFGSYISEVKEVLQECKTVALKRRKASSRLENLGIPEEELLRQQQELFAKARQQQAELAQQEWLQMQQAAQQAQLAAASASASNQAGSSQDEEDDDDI
UniProt Q9C005, whole entry, looked up: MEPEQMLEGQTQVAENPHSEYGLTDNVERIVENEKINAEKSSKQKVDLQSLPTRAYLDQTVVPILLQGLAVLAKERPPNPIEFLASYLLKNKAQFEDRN
UniProt O75190: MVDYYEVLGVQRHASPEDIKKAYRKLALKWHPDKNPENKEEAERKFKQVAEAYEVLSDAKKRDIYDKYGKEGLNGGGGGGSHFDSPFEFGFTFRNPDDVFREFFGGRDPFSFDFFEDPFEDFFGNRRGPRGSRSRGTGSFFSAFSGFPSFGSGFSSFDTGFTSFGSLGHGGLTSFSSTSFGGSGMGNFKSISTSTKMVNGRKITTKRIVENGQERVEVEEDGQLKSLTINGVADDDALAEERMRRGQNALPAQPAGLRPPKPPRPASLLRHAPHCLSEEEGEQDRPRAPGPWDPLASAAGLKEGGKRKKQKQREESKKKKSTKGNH
UniProt O00115: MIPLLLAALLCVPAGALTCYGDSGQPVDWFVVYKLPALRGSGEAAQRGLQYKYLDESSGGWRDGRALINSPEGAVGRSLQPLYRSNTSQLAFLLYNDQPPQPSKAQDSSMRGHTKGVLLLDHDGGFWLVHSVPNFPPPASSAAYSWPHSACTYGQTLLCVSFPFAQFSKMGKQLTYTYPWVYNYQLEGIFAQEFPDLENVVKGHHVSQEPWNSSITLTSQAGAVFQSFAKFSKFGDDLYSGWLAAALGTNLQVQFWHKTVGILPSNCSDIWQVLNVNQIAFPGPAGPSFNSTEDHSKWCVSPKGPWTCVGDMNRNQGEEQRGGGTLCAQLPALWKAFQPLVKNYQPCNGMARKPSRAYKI
UniProt Q9BQC3: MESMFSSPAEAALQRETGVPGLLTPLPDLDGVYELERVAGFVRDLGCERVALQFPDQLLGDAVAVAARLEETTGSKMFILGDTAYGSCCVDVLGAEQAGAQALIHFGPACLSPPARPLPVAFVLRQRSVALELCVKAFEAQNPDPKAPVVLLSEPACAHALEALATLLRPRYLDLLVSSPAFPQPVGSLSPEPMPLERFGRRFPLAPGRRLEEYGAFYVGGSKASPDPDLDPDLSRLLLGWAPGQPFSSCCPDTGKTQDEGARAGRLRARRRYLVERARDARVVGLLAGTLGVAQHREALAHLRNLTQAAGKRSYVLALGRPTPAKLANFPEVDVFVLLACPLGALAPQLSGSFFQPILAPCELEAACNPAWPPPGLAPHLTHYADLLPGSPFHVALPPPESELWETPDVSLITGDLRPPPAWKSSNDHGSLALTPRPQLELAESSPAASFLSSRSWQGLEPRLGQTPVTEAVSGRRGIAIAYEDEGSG
UniProt O00559: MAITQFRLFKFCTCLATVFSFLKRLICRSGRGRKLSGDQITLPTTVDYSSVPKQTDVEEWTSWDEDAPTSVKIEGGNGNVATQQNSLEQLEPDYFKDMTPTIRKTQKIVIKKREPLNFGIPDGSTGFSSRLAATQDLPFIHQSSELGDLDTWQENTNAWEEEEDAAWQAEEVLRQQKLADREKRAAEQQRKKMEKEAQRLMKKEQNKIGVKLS
UniProt Q7Z388: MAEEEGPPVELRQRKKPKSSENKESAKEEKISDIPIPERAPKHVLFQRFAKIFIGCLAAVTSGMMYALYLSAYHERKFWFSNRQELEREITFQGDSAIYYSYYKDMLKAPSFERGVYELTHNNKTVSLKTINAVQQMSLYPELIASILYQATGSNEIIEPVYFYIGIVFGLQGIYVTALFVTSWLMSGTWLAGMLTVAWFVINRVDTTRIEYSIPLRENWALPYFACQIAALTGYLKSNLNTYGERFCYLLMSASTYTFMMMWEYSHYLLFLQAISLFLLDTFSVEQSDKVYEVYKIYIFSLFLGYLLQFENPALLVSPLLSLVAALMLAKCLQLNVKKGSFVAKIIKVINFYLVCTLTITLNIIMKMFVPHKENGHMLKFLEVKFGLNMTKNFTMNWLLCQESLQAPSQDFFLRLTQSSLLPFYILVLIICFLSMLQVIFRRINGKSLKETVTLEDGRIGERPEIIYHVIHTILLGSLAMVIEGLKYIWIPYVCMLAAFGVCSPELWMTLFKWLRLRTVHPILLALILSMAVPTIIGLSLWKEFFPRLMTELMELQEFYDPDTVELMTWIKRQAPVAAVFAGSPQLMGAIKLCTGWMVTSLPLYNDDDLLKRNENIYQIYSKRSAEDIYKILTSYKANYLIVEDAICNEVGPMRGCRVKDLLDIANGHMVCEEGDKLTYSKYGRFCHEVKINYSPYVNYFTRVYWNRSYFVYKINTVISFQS
UniProt Q86TI2: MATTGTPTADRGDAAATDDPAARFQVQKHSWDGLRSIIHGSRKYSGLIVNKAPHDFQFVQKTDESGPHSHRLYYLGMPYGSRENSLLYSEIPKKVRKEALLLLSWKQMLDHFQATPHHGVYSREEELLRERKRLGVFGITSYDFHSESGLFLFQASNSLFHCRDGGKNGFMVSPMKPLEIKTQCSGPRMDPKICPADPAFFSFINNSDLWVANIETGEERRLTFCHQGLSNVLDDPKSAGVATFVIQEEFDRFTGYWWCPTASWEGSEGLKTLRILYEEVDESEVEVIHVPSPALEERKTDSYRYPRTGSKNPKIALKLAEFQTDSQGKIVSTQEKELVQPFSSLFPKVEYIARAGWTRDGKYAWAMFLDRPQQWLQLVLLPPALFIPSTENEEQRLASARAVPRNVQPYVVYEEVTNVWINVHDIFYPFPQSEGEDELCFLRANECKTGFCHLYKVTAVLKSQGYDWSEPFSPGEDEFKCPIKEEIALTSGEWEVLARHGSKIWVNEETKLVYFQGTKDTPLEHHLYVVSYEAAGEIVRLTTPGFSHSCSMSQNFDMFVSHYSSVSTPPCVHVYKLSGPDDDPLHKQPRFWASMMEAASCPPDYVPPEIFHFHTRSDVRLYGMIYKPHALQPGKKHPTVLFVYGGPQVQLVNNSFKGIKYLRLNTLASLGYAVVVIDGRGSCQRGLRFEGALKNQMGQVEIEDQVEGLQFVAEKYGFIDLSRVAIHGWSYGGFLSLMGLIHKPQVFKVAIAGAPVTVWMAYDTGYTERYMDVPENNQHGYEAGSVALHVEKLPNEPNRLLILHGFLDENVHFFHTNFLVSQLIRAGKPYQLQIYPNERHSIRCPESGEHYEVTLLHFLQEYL

Compound: CN(C)CC(=O)Nc1ccc2[nH]c(=O)c3ccccc3c2c1
Assay: log2 fold change, soluble protein after heating vs DMSO (PISA); higher = thermal stabilisation; K562 cells, 10 uM, 30 min; active = over 0.2 and 3.5 SD of the protein, either way, in both replicates (recomputed)
Procedure, shortened: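 Soluble protein was quantified by TMTpro 16plex LC-MS/MS after channel sums were equalised. It was obtained as the supernatant after 21,000xg for 90 min from pooled aliquots of K562 cells (2×10^6 cells/mL, 10 μM compound, 30 min) heated for 3 min across 48°C-58°C and extracted in PBS with 0.5% NP-40 at 4°C. Thermal stability values are relative to control samples and come from duplicates. They are given as log2 fold changes.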

log2 fold change, inactive:
EDEM1 (UniProt Q92611) -0.155
EBP (UniProt Q15125) 0.17
DYNLL1 (UniProt P63167) -0.044
DPH6 (UniProt Q7L8W6) 0.022
ECSIT (UniProt Q9BQ95) -0.017
DNAJC9 (UniProt Q8WXX5) 0.01
DNAJC2 (UniProt Q99543) 0.067
ECI1 (UniProt P42126) 0.014
DNM1L isoform 6 (UniProt O00429) -0.015
DPF2 (UniProt Q92785) 0.025
DNAJB4 (UniProt Q9UDY4) 0.017
ECHDC1 (UniProt Q9NTX5) -0.028
DTD1 (UniProt Q8TEA8) -0.011
DR1 (UniProt Q01658) 0.006
DPY30 (UniProt Q9C005) 0.129
DNAJB6 (UniProt O75190) -0.006
DOCK9 isoform 4 (UniProt Q9BZ29) -0.006
DPP7 (UniProt Q9UHL4) -0.01
DNASE2 (UniProt O00115) -0.049
DUSP3 (UniProt P51452) 0.031
DSG2 (UniProt Q14126) -0.008
DNAJC17 (UniProt Q9NVM6) 0.027
DPH2 (UniProt Q9BQC3) -0.002
EBAG9 isoform 2 (UniProt O00559) -0.016
DUT (UniProt P33316) 0.01
DNPH1 (UniProt O43598) -0.011
DPAGT1 (UniProt Q9H3H5) 0.138
DPH1 (UniProt Q9BZG8) 0.047
DOCK7 (UniProt Q96N67) 0.034
DPY19L4 (UniProt Q7Z388) 0.207
DPP9 isoform 2 (UniProt Q86TI2) 0.034
DPH7 (UniProt Q9BTV6) 0.008
EDEM3 (UniProt Q9BZQ6) -0.048

For convenience, part of the list above.
log2 fold change, inactive:
DNPH1 (UniProt O43598) -0.011
DPAGT1 (UniProt Q9H3H5) 0.138
DPH1 (UniProt Q9BZG8) 0.047
